Test results reported in US7723371B2, “Microbiocides” (Syngenta Crop Protection, Inc., priority 2005, dated 2010).
Some entries share one result that the patent states for a list of compounds.

How the values were obtained:
Assay type in all cases: in vivo
Podosphaera leucotricha = experiment: Action against Podosphaera leucotricha/apple (powdery mildew on apple); settings: 0.02% active ingredient, spray; apple seedlings cv. McIntosh; inoculated one day after application; assessed after 12 days incubation
Botrytis cinerea [1] = experiment: Action against Botrytis cinerea/tomato (Botrytis on tomatoes); settings: 0.02% active ingredient, spray; tomato cv. Roter Gnom; inoculated two days after application; assessed after 4 days incubation
Alternaria solani = experiment: Action against Alternaria solani/tomato (early blight on tomatoes); settings: 0.02% active ingredient, spray; tomato cv. Roter Gnom; inoculated two days after application; assessed after 3 days incubation
Botrytis cinerea [2] = experiment: Action against Botrytis cinerea/grape (Botrytis on grapes); settings: 0.02% active ingredient, spray; grape seedlings cv. Gutedel; inoculated two days after application; assessed after 4 days incubation
Helminthosporium teres = experiment: Action against Helminthosporium teres/barley (net blotch on barley); settings: 0.02% active ingredient, spray; barley cv. Regina; inoculated two days after application; assessed after 4 days incubation
Puccinia recondita [3] = experiment: Action against Puccinia recondita/wheat (brownrust on wheat) (pouch test); settings: 0.002% active ingredient applied into pouch; wheat cv. Arina; inoculated one week after sowing; assessed 10 days after inoculation; indicator for systemic activity
Septoria tritici = experiment: Action against Septoria tritici/wheat (Septoria leaf spot on wheat); settings: 0.02% active ingredient, spray; wheat cv. Riband; inoculated one day after application; assessed 18 days after inoculation
Erysiphe graminis = experiment: Action against Erysiphe graminis/barley (powdery mildew on barley); settings: 0.02% active ingredient, spray; barley cv. Regina; inoculated one day after application; assessed after 6 days incubation
Uncinula necator = experiment: Action against Uncinula necator/grape (powdery mildew on grapes); settings: 0.02% active ingredient, spray; grape seedlings cv. Gutedel; inoculated one day after application; assessed after 7 days incubation
Venturia inaequalis = experiment: Action against Venturia inaequalis/apple (scab on apple); settings: 0.02% active ingredient, spray; apple seedlings cv. McIntosh; inoculated one day after application; assessed after 4+4+4 days incubation
Puccinia recondita [4] = experiment: Action against Puccinia recondita/wheat (brownrust on wheat); settings: 0.02% active ingredient, spray; wheat cv. Arina; inoculated one day after application; assessed 10 days after inoculation

Compound | infestation (Podosphaera leucotricha) | disease incidence (Botrytis cinerea [1]) | disease incidence (Alternaria solani) | disease incidence (Botrytis cinerea [2]) | disease incidence (Helminthosporium teres) | disease incidence (Puccinia recondita [3]) | disease incidence (Septoria tritici) | infestation (Erysiphe graminis) | disease incidence (Uncinula necator) | infestation (Venturia inaequalis) | infestation (Puccinia recondita [4])
Cn1cc(C(=O)Nc2ccccc2C2CC(C3CC3)C2)c(C(F)F)n1 (mixture of isomers) [Compound 1.2] | < 20% | < 50% | < 20% | < 50% | < 20% | < 50% | < 20% | < 20% | < 20% | < 20% | < 20%
Cc1nc(C(F)(F)F)c(C(=O)Nc2ccccc2C2CC(C3CC3)C2)s1 (mixture of isomers) [Compound 4.1] | < 20% | < 50% | < 20% | < 50% | < 20% | < 50% | < 20% | < 20% | < 20% | < 20% | < 20%
O=C(Nc1ccccc1C1CC(C2CC2)C1)c1cccnc1Cl (mixture of isomers) [Compound 5.2] | < 20% | < 50% | < 20% | < 50% | < 20% | < 50% | < 20% | < 20% | < 20% | < 20% | < 20%
Cn1cc(C(=O)Nc2ccccc2C2CCC2C2CC2)c(C(F)F)n1 (centres unmarked) [Compound 7.2] | < 20% | < 50% | < 20% | < 50% | < 20% | < 50% | < 20% | < 20% | < 20% | < 20% | < 20%
Cn1cc(C(=O)Nc2ccccc2C2CCC2C2CC2)c(C(F)(F)F)c1 (centres unmarked) [Compound 8.1] |  |  |  | < 50% |  |  |  |  |  |  | 
Cc1nc(C(F)(F)F)c(C(=O)Nc2ccccc2C2CCC2C2CC2)s1 (centres unmarked) [Compound 10.1] | < 20% | < 50% | < 20% | < 50% | < 20% | < 50% | < 20% | < 20% | < 20% | < 20% | < 20%
